From the supplement of paper PMC4749390
Counter-ions that a name gives are not always drawn. This is one part of the list. Single values are uncertain here, since repeats match poorly.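 Wild-type human LRH-1, a heavily sumoylated nuclear receptor, is tetracycline-inducible in stable JEG3 cells. RT-qPCR measured SUMO-sensitive APOC3 and MUC1 transcripts, which rise with SUMO-less LRH-1 or UBC9 knockdown, versus TBP and DMSO controls. Robust Z-scores beyond ±2 flagged primary hits, followed by toxicity and TBP filtering.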

Tested on: JEG3 expressing hLRH-1
Assay: MUC1 transcript change (ddCt vs TBP and DMSO), Z-score over library; higher = higher MUC1 expression
Conditions: 10 µM; time (hr): 24

Going from `C[C@H]1COc2c(C3(N)CC3)c(F)cc3c(=O)c(C(=O)O)cn1c23` [pazufloxacin mesylate] to `CN1CCc2cccc3c2C1Cc1ccc(O)c(O)c1-3` (configuration not stated) [apomorphine hydrochloride], the “MUC1 transcript change (Z-score)” value rises from -0.852 to 0.763.

Compared with `CCC(C)[C@H]1O[C@]2(C=C[C@@H]1C)C[C@@H]1C[C@@H](C/C=C(\C)[C@@H](OC3C[C@H](OC)C(O[C@H]4C[C@H](OC)[C@@H](NC(C)=O)[C@H](C)O4)[C@H](C)O3)[C@@H](C)/C=C/C=C3\CO[C@@H]4[C@H](O)C(C)=C[C@@H](C(=O)O1)[C@]34O)O2` (some centres not stated) [eprinomectin], `CO[C@@H]1[C@@H](O[C@@H]2O[C@H](C)[C@@H](O[C@H]3C[C@@](C)(O)[C@H](O)[C@H](C)O3)[C@H](N(C)C)[C@H]2O)[C@@H](CC=O)C[C@@H](C)[C@@H](O[C@H]2CC[C@H](N(C)C)[C@@H](C)O2)/C=C/C=C/C[C@H](C)OC(=O)C[C@H]1O` [spiramycin] is higher in “MUC1 transcript change (Z-score)” value: -0.581 for the first, 0.628 for the second.

Compared with `CCCCCCc1ccc(O)cc1O` [hexylresorcinol], `CC(C)(C)NC[C@H](O)c1ccc(O)c(CO)c1` [levalbuterol hydrochloride] is higher in “MUC1 transcript change (Z-score)” value: 0.365 for the first, 0.818 for the second.

Going from `O=C(O)c1ccc[n+]([O-])c1` [oxiniacic acid] to `O=C(O)c1ccccc1` [benzoic acid], the “MUC1 transcript change (Z-score)” value rises from -0.56 to 0.418.

Compared with `O=C1CCc2ccc(OCCCCN3CCN(c4cccc(Cl)c4Cl)CC3)cc2N1` [aripiprazole], `COc1cc2c(cc1OC)C(=O)C(CC1CCN(Cc3ccccc3)CC1)C2` (configuration not stated) [donepizil hydrochloride] is higher in “MUC1 transcript change (Z-score)” value: 0.298 for the first, 1.36 for the second.

Compared with `COC(=O)[C@@H]1[C@H]2C[C@H]3c4[nH]c5ccccc5c4CCN3C[C@@H]2CC[C@@H]1O` [yohimbine hydrochloride], `CCN1CCCC(OC(=O)C(c2ccccc2)c2ccccc2)C1` (configuration not stated) [piperidolate hydrochloride] is higher in “MUC1 transcript change (Z-score)” value: 0.698 for the first, 1.06 for the second.

Going from `C[C@]12C=CC(=O)C=C1CC[C@@H]1[C@@H]2[C@@H](O)C[C@@]2(C)[C@H]1CC[C@]2(O)C(=O)COC(=O)CCC(=O)O` [prednisolone hemisuccinate] to `CC(=O)OCC(=O)[C@@]12N=C(C)O[C@@H]1C[C@H]1[C@@H]3CCC4=CC(=O)C=C[C@]4(C)[C@H]3[C@@H](O)C[C@@]12C` [deflazacort], the “MUC1 transcript change (Z-score)” value rises from -0.0641 to 0.00954.

Compared with `C[C@]12CC[C@@H]3c4ccc(O)cc4C[C@@H](CCCCCCCCCS(=O)CCCC(F)(F)C(F)(F)F)[C@H]3[C@@H]1CC[C@@H]2O` (some centres not stated) [fulvestrant], `CCCCCCCCCCCCC[N+](C)(C)Cc1ccccc1` [benzalkonium chloride] is higher in “MUC1 transcript change (Z-score)” value: -0.348 for the first, 0.936 for the second.

First: CCCCOc1cc(C(=O)NCCN(CC)CC)c2ccccc2n1 [dibucaine hydrochloride]
Second: CCN(CC)CCOC(=O)C(c1ccccc1)C1CCCCC1 (configuration not stated) [drofenine hydrochloride]
The “MUC1 transcript change (Z-score)” value of the first is lower: -0.773 for the first, 0.633 for the second.

First: N=C(N)NCC1COC2(CCCCC2)O1 (configuration not stated) [guanadrel sulfate]
Second: Cc1cnc(C(=O)NCCc2ccc(S(=O)(=O)NC(=O)NC3CCCCC3)cc2)cn1 [Glipizide]
The “MUC1 transcript change (Z-score)” value of the first is higher: 0.108 for the first, 0.00505 for the second.

First: COc1c(C)c2c(c(O)c1C/C=C(\C)CCC(=O)O)C(=O)OC2 [mycophenolic acid]
Second: CCc1cccc2c3c([nH]c12)C(CC)(CC(=O)O)OCC3 (configuration not stated) [etodolac]
The “MUC1 transcript change (Z-score)” value of the first is higher: 2.15 for the first, 0.183 for the second.

Going from `C1CCN2C[C@@H]3C[C@H](CN4CCCC[C@@H]34)[C@H]2C1` [sparteine sulfate] to `CC(=O)[C@H]1CCC2C3CC=C4C[C@@H](O)CC[C@]4(C)C3CC[C@@]21C` (some centres not stated) [pregnenolone], the “MUC1 transcript change (Z-score)” value rises from -0.116 to 0.195.

First: CC(=O)Nc1ccc(CC(=O)O)cc1 [actarit]
Second: CC(=O)Nc1ccc(O)cc1 [acetaminophen]
The “MUC1 transcript change (Z-score)” value of the first is lower: -1.64 for the first, -0.44 for the second.

First: CN(C)[C@@H]1C(=O)C(C(=O)NCN2CCCC2)=C(O)[C@@]2(O)C(O)=C3C(=O)c4c(O)cccc4[C@@](C)(O)[C@H]3C[C@@H]12 [rolitetracycline]
Second: C[C@@H]1CC2C3CCC4=CC(=O)C=C[C@]4(C)[C@@]3(F)[C@@H](O)C[C@]2(C)[C@H]1C(=O)CO (some centres not stated) [desoxymetasone]
The “MUC1 transcript change (Z-score)” value of the first is higher: 0.579 for the first, -0.2 for the second.

Going from `CC(C)Nc1ncccn1` [isaxonine] to `COc1cnc(NS(=O)(=O)c2ccc(N)cc2)nc1` [sulfameter], the “MUC1 transcript change (Z-score)” value falls from 0.0805 to -0.313.

Going from `CN1C(C(=O)Nc2ccccn2)=C(O)c2sccc2S1(=O)=O` [tenoxicam] to `Cc1cc(NC(=O)C2=C(O)c3ccccc3S(=O)(=O)N2C)no1` [isoxicam], the “MUC1 transcript change (Z-score)” value falls from -0.0631 to -0.903.

Going from `CCCCNC(=O)NS(=O)(=O)c1ccc(C)cc1` [Tolbutamide] to `Cc1noc(NS(=O)(=O)c2ccc(N)cc2)c1C` [sulfisoxazole], the “MUC1 transcript change (Z-score)” value rises from -0.487 to -0.234.

First: CC(=O)[C@H]1CC[C@H]2[C@@H]3C[C@H](C)C4=CC(=O)CC[C@]4(C)[C@H]3[C@@H](O)C[C@]12C [medrysone]
Second: CCCCC(=O)O[C@]1(C(=O)CO)CC[C@H]2[C@@H]3CCC4=CC(=O)CC[C@]4(C)[C@H]3[C@@H](O)C[C@@]21C [hydrocortisone valerate]
The “MUC1 transcript change (Z-score)” value of the first is lower: -1.69 for the first, -1.34 for the second.

Going from `CCCCCCCCCCOc1cc2c(O)c(C(=O)OCC)cnc2cc1OCC` [decoquinate] to `COc1cc2nc(N(C)CCCNC(=O)C3CCCO3)nc(N)c2cc1OC` (configuration not stated) [alfuzosin hydrochloride], the “MUC1 transcript change (Z-score)” value falls from 0.33 to 0.263.

Compared with `O=S(=O)(O)c1cc(I)c(O)c2ncccc12` [chiniofon], `CC(=O)CC(c1ccccc1)c1c(O)oc2ccccc2c1=O` (configuration not stated) [warfarin] is lower in “MUC1 transcript change (Z-score)” value: 0.916 for the first, 0.686 for the second.

Going from `NC[C@H]1O[C@H](O[C@H]2[C@H](O)[C@@H](O[C@H]3O[C@H](CO)[C@@H](O)[C@H](N)[C@H]3O)[C@H](N)C[C@@H]2N)[C@H](N)C[C@@H]1O` [tobramycin] to `OC[C@H]1O[C@@H](O[C@H]2[C@H](O)[C@@H](O)[C@@H](O)O[C@@H]2CO)[C@H](O)[C@@H](O)[C@H]1O` [lactose monohydrate], the “MUC1 transcript change (Z-score)” value rises from -0.191 to 0.933.

Going from `CCc1nc(N)nc(N)c1-c1ccc(Cl)cc1` [pyrimethamine] to `Clc1ccc(COC(Cn2ccnc2)c2ccc(Cl)cc2Cl)cc1` (configuration not stated) [econazole nitrate], the “MUC1 transcript change (Z-score)” value rises from -0.356 to -0.313.

First: COc1ccc(-c2cc(=O)c3c(O)cc(O[C@@H]4O[C@H](CO[C@@H]5O[C@@H](C)[C@H](O)[C@@H](O)[C@H]5O)[C@@H](O)[C@H](O)[C@H]4O)cc3o2)cc1O [diosmin]
Second: OC[C@@H](O)[C@@H](O[C@@H]1O[C@H](CO)[C@H](O)[C@H](O)[C@H]1O)[C@H](O)[C@@H](O)CO [lacitol]
The “MUC1 transcript change (Z-score)” value of the first is higher: 0.337 for the first, -0.265 for the second.

Compared with `COc1ccc(C(=O)c2ccc(C)cc2)c(O)c1` [mexeneone], `C/C=C(/C(=C/C)c1ccc(O)cc1)c1ccc(O)cc1` [dienestrol] is lower in “MUC1 transcript change (Z-score)” value: -0.104 for the first, -0.152 for the second.

First: NC(=O)NC(=O)Cc1ccccc1 [phenacemide]
Second: CC(=O)N[C@@H](Cc1ccccc1)C(=O)O [afalanine]
The “MUC1 transcript change (Z-score)” value of the first is lower: -0.7 for the first, -0.228 for the second.

Going from `C[n+]1ccccc1/C=N/O` [Pralidoxime iodide] to `COc1ccccc1O` [guaiacol], the “MUC1 transcript change (Z-score)” value falls from 0.127 to -0.199.

Compared with `Cc1cc(C(C)(C)CC(C)(C)C)ccc1OCCOCC[N+](C)(C)Cc1ccccc1` [methylbenzethonium chloride], `Cc1cc(/C=C/c2ccc3cc(N(C)C)ccc3[n+]2C)c(C)n1-c1ccccc1` [pyrvinium pamoate] is lower in “MUC1 transcript change (Z-score)” value: 0.582 for the first, -6.6 for the second.

Going from `CC(C)[C@H](NC(=O)[C@H](CC(=O)O)NC(=O)[C@H](CCCCN)NC(=O)[C@@H](N)CCCN=C(N)N)C(=O)N[C@@H](Cc1ccc(O)cc1)C(=O)O` [thymopentin] to `CCC(C)C1NC(=O)C(CCN)NC(=O)C(NC(=O)C(CCN)NC(=O)C(NC(=O)C(CCN)NC(=O)CCCCC(C)C)C(C)O)CCNC(=O)C(C(C)O)NC(=O)C(CCN)NC(=O)C(CCN)NC(=O)C(C(C)CC)NC1=O` (configuration not stated) [colistin sulfate], the “MUC1 transcript change (Z-score)” value falls from 0.986 to 0.327.

Compared with `Oc1ncc(F)c(O)n1` [fluorouracil], `CC(=O)Oc1ccccc1C(=O)Nc1ncc([N+](=O)[O-])s1` [nitazoxanide] is higher in “MUC1 transcript change (Z-score)” value: 0.528 for the first, 1.23 for the second.

Compared with `CC(C)COC(=O)c1ccc(N)cc1` [isobutamben], `O=C(Nc1ccccc1)c1ccccc1O` [salicylanilide] is higher in “MUC1 transcript change (Z-score)” value: -0.973 for the first, 0.41 for the second.

Going from `CC(=O)O[C@H]1C(=O)[C@@]2(C)C([C@H](OC(=O)c3ccccc3)[C@]3(O)C[C@H](OC(=O)[C@H](O)[C@@H](NC(=O)c4ccccc4)c4ccccc4)C(C)=C1C3(C)C)[C@]1(OC(C)=O)CO[C@@H]1C[C@@H]2O` (some centres not stated) [Taxol] to `CC(C)(C(=O)O)c1ccc(C(O)CCCN2CCC(C(O)(c3ccccc3)c3ccccc3)CC2)cc1` (configuration not stated) [fexofenadine hydrochloride], the “MUC1 transcript change (Z-score)” value rises from -0.263 to -0.115.

Going from `C=CCSCC1Nc2cc(Cl)c(S(N)(=O)=O)cc2S(=O)(=O)N1` (configuration not stated) [althiazide] to `Cc1cc2c(cc1S(N)(=O)=O)S(=O)(=O)CCC2` [meticrane], the “MUC1 transcript change (Z-score)” value falls from 1.7 to -0.104.

First: O=C(Nc1ccccc1)OCC(CN1CCCCC1)OC(=O)Nc1ccccc1 (configuration not stated) [diperodon hydrochloride]
Second: CN1CCN2c3ccccc3Cc3ccccc3C2C1 (configuration not stated) [Mianserin hydrochloride]
The “MUC1 transcript change (Z-score)” value of the first is lower: 0.305 for the first, 0.549 for the second.

First: NCCCC(N)C(=O)O (configuration not stated) [ornithine aketoglutarate]
Second: CC1(C)C(C(=O)O)N2C(=O)C[C@H]2S1(=O)=O (some centres not stated) [sulbactam]
The “MUC1 transcript change (Z-score)” value of the first is higher: 0.466 for the first, -3.35 for the second.

First: CO/N=C(\C(=O)N[C@@H]1C(=O)N2C(C(=O)O)=C(C[N+]3(C)CCCC3)CS[C@H]12)c1csc(N)n1 [cefepime hydrochloride]
Second: CN1CC(=O)N=C1N [creatinine]
The “MUC1 transcript change (Z-score)” value of the first is lower: 0.443 for the first, 0.935 for the second.

First: O=C1[O][Bi]([OH])[O]c2ccccc21 [bismuth subsalicylate]
Second: c1ccc([C@H]2CN3CCSC3=N2)cc1 [levamisole hydrochloride]
The “MUC1 transcript change (Z-score)” value of the first is higher: 1.26 for the first, 0.755 for the second.
